According to PMC5288152:
Results are given in words; binding and its absence hold for the method and conditions named. In cells and extracts the contact can be indirect. Some binding calls cover weakened binding; strength is not graded here.

Sequences of proteins named here, by UniProt entry; tags and fusion partners are left off. Residues count along the entry.
UniProt P00441: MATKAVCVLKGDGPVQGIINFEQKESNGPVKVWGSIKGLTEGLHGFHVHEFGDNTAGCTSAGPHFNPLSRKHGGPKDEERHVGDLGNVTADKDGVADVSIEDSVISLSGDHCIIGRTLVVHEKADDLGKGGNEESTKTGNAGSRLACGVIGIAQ
UniProt P06396, residues 28-782: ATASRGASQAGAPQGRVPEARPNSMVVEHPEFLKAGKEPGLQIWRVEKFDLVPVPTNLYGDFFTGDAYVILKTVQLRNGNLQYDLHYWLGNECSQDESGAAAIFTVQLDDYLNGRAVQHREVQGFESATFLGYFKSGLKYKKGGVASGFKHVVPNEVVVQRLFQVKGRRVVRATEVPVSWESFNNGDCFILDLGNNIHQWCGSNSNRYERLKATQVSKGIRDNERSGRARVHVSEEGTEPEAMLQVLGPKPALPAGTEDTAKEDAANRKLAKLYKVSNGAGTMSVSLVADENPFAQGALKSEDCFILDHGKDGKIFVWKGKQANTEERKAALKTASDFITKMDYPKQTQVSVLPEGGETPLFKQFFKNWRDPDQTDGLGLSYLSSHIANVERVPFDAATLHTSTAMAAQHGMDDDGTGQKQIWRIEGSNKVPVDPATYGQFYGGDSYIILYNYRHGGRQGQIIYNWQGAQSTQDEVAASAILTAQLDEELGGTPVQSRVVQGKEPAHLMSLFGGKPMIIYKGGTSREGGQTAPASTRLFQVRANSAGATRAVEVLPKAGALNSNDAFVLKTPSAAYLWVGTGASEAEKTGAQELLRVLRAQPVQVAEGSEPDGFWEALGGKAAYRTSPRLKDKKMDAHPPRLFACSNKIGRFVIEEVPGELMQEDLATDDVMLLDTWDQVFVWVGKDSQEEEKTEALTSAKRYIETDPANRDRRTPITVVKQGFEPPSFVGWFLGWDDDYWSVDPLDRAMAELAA

Assays:
[1] = target: Cu/ZnSOD (human (endogenous in HCT116)) (UniProt P00441); test: proximity ligation; in situ PLA (Duolink 563 kit) on fixed cells with primary antibodies against gelsolin and Cu/ZnSOD; gelsolin-overexpressing C1 cells, vector control cells, and C1 cells with gelsolin siRNA or control siRNA
[2] = target: Cu/ZnSOD (human (endogenous in HCT116)) (UniProt P00441); test: co-IP; endogenous Cu/ZnSOD immunoprecipitated from 500 ug of C1 cell lysate (modified RIPA buffer) with anti-Cu/ZnSOD antibody on protein A/G agarose beads, overnight at 4 C; gelsolin detected by western blot; mouse IgG as negative control

binding [1]: binds | binding [2]: binds
Substance: gelsolin (from UniProt P06396 28-782)
